Holding throughout (experiment): SEC; 25 uM previously purified monomeric fractions incubated in 50 mM phosphate buffer pH 8.0; TSK-Gel G2000 SWXL column equilibrated at pH 8.0, 0.5 mL/min; both purified
For orientation: Size exclusion chromatography separates by hydrodynamic size, large species first.

For test [1], the target named is diphtheria toxin T domain single mutant E362Q (UniProt P00588).
The target of test [2] is diphtheria toxin T domain double mutant E349Q/D352N (UniProt P00588).
Test [3] deals with diphtheria toxin translocation domain (T domain), wild-type (UniProt P00588).

Our source for the binding values is article PMC4417968.

These are yes or no findings as the source states them, for the method shown.

On to “diphtheria toxin T domain single mutant E362Q (from UniProt P00588 234-410) (domain or fragment)”, for which, in test [1], the binding result is given as “no binding (condition: at pH 8.0 (25 uM))”.
“diphtheria toxin T domain double mutant E349Q/D352N (from UniProt P00588 234-410) (domain or fragment)”: the binding result in test [2] is reported as “no binding (condition: at pH 8.0 (25 uM))”.
On to “diphtheria toxin translocation domain (T domain), wild-type (from UniProt P00588 234-410) (domain or fragment)”, for which the binding result in test [3] was “no binding (tested: 25 uM)”.
